# Some of these results come from one statement about several compounds together.
# Biological target: T1, fatty acid amide hydrolase (FAAH) (Mus musculus, UniProt O08914)
# T1 construct: Brain and liver were isolated from homozygous wild type (FAAH^+/+), heterozygous (FAAH^+/−) and homozygous knockout (FAAH^−/−) mice; from tissue; host or cells: mouse brain and liver extracts (129SvJ-C57BL/6 intercross offspring)
# T1 sequence (O08914 1-579): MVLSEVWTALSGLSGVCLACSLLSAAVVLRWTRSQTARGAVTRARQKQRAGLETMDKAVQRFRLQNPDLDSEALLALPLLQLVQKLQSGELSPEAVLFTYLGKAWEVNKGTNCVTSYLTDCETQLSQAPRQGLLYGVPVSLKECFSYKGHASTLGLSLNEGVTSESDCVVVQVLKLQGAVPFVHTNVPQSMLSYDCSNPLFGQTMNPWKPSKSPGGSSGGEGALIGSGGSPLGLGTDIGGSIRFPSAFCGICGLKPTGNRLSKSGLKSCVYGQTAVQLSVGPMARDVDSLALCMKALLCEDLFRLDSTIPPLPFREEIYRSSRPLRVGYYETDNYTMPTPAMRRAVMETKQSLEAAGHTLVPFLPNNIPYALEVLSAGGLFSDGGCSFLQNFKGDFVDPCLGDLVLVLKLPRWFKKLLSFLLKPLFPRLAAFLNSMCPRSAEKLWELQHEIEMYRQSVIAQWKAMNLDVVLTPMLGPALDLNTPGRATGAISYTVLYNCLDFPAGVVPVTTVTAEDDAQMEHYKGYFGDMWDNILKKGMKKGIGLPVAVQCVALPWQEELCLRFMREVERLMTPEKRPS
# Test: FAAH activity assay, conversion of 14C-labeled substrates by thin layer chromatography
# Format: biochemical
# Settings: pH 7.2
# Procedure: The mice also were examined for FAAH enzymatic activity. FAAH activity assays for oleamide and anandamide were measured by following the conversion of ^14C-labeled substrates using a thin layer chromatography assay essentially as described by Patricelli et al. (Biochemistry 38:9804-9812, 1999), except that enzyme assays were conducted at pH 7.2. […] Brain extracts from FAAH^−/− mice hydrolyzed anandamide and oleamide 50 to 100 times more slowly than brain extracts from the homozygous wild type mice.
smiles,measurement,value
"CCCCC/C=C\C/C=C\C/C=C\C/C=C\CCCC(=O)NCCO [anandamide, N-arachidonoyl-ethanolamine]","hydrolysis by FAAH−/− brain extracts, times more slowly than homozygous wild type brain extracts",50 to 100 times
